Data from patent publication US6663869B1 (Gryphon Therapeutics, Inc., priority 1993, dated 2003).

Tests used:
[1] = general procedure: Fmoc solid-phase peptide synthesis; Fmoc-Arg(Pmc)-Sasrin; details: whole synthesis, scale approximately 20 umol
[2] = general procedure: Fmoc solid-phase peptide synthesis; Sasrin; details: whole synthesis, scale 0.17 mmol
[3] = solid-phase peptide synthesis; details: whole synthesis, scale of the general procedure 0.5 mmol per synthesis

In the case of NH2OCH2CO-ELGGGPGAGSLQPLALEGSLQKR-OH, the isolated mass [1] is reported as 8 mg.

Substance Ser-TCTP has an isolated mass [2] of 90 mg.

For H-Ser-Gly3-[Lys(H-Ser)]5-Gly-OH, the difficulty met [3] was “the standard ninhydrin test showed that acylation was incomplete”.
